Results are given in words; binding and its absence hold for the method and conditions named. Binding seen in cells or lysates may run through a third protein. Binding can be weak; no strength is given.
Molecular target: dihydrolipoyl dehydrogenase (E3) (Chaetomium thermophilum (endogenous in the native cell extract))
Experiment: cross-linking; BS3 (1 mM) crosslinking mass spectrometry directly in pooled SEC fractions 3-6 and 7-9 of the native lysate; FDR 2% at the peptide level

binding: binds
B1: C. thermophilum protein E3BPo (KGD4 OGDHc subunit) (protein, UniProt P9WES8 1-135)
chain: MFGTKALRAAQHAVRTPSIKFIGKRTIPAVVDHTPQPHPASPTKTLPASFLSSHATFSVYRDHAQQFGPLRKTITPNAGIGGSPAVALGPVEPPQGVYFDRNDLPERFRRQPLTPDEIEAIETGGGHLLYRGSYL

Source: PMC10203282, “Structural analysis of an endogenous 4-megadalton succinyl-CoA-generating metabolon” (Communications Biology, 2023)
